## Screening data, single-dose tests

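Phenotypic screen: M. tuberculosis growth, glucose 7H9 medium, 3 days; the read-out is not stated. Compounds at 50 µM. The record gives no direction; compounds that gave an IC50 in retests scored well above the rest, so higher reads as more growth inhibition. Size under these conditions: about 69,000 compounds, about 760 of them at 50% or above in at least one test.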

Results are given as percent effect.
The controls that fix the scale are not given in the record; negative values are as filed.
This is an unselected part of the compounds tested.
Two or more numbers in one place are separate tests of the same structure; such repeats can differ widely.

compound	percent effect
COC(=O)NC1(C(=O)NCc2ccc(-c3ccn[nH]3)cc2)CCCC1	-32.26%
O=C(CCc1cc2n(n1)CCCNC2)NCCS(=O)(=O)N1CCCC1	1.188%
[H][C@@]12CC[C@@]([H])(C1)[C@H](Nc1nccc(-c3cnn(CCC)c3C)n1)C2	5.565% & 18.46%
CC(Cn1cccn1)NC(=O)Nc1ccc(N(C)C)nc1 (centres unmarked)	-48.26% & -22.96%
CC(C)CC(NC(=O)CN(C)C(=O)c1ccco1)c1cccs1 (centres unmarked)	-25.1%
CCOC(=O)C(C)Nc1cccc(COCc2ccco2)c1 (centres unmarked)	11.36%
NC(=O)C1CN(C(=O)C2(c3ccc(F)cc3F)CCCC2)CCO1 (centres unmarked)	6.459%
c1ccc(Cn2cccn2)c(CN2CCC3(CCCNC3)C2)c1 (centres unmarked)	-23.13%
COCc1cn(CC2CCN(Cc3cc(C)[nH]n3)CC2)nn1	-2.543% & 8.032%
CSc1ccc(NC(=O)NCC(O)C2CC2)cc1F (centres unmarked)	-2.996% & -13.81%
CN(CCCOc1ccccc1Cl)C(=O)CN1C(=O)CCNC1=O	-17.39%
CC(=O)NC1CCN(C(=O)c2cnc(COc3ccccc3)nc2O)C1 (centres unmarked)	-6.929%
COCC(=O)N1CCc2nc(NC(C)C)nc(NC(C)C)c2CC1	0.49%
Cc1ccc(-c2noc(CNCC3CN(C)CCO3)n2)cc1F (centres unmarked)	15.19%
O=C(c1cccnc1)N1CCOCC2(CCN(c3ncccn3)C2)C1 (centres unmarked)	0.4229%
COc1ccccc1CC1CCCN1C(=O)c1cn[nH]c1C (centres unmarked)	-3.278%
CCO[C@H]1CO[C@@]2(CCN(Cc3ccc4c(c3)OCO4)C2)C1.O=C(O)C(F)(F)F	13.52%
CCOc1cccc(NS(=O)(=O)c2cc(C(=O)O)cs2)c1	-14.24%
CCC(C)NC(=O)NCCCn1nc2ccccn2c1=O (centres unmarked)	14.98%
CN(C)CCN1CCOCC2(CCCN(C(=O)c3cccc(O)c3)C2)C1 (centres unmarked)	-0.07523% & 3.042%
O=C(c1ccc2nncn2c1)N1CCCC1c1noc(C2CC2)n1 (centres unmarked)	-10.2%
COc1ccccc1C(=O)N1CCCC1c1ncc2c(n1)CCNC2.Cl (centres unmarked)	-11.13%
CCn1nc(NC(=O)Cn2ccc(C(C)=O)n2)c2ccccc21	1.178% & -72.85%
C=C(C)CN1C(=O)CC(Cc2ccc(F)cc2)C1=O (centres unmarked)	-7.935%
COc1nccc(N2CC[C@H](N3CCOCC3)[C@H](CCCO)C2)c1C#N	-11.57%
CNc1oc(-c2ccc(OC)c(S(=O)(=O)N(C)C)c2)nc1C#N	10.72% & -6.453%
CCN(CC)S(=O)(=O)c1ccc(CNC(=O)N2CCCCCC2)cc1	2.041%
O=C(O)C(F)(F)F.[H][C@@]12COC[C@@H](CC(=O)N3CCOCC3)[C@]1([H])CN(C(=O)c1cccnc1)C2	-9.555%
O=C(NCc1ccc(-n2cncn2)nc1)c1cnccn1	-0.5671%
CN(C)C(=O)N1CCC2(CCC(C(=O)N3CCCC3)O2)CC1 (centres unmarked)	-5.726%
O=C(c1csc(-c2nnc[nH]2)n1)N1CCCCC1Cn1cccn1 (centres unmarked)	7.119%
CN(Cc1ccsc1)C(=O)Cn1c(CS(C)(=O)=O)nc2ccccc21	2.365%
Cc1ccc(C(CNC(=O)NCc2ccccn2)N2CCOCC2)o1 (centres unmarked)	-16.67%
Cn1ccc(C(=O)N2CCOC(c3ccccn3)C2)cc1=O (centres unmarked)	-19.69%
COc1ccc2c(c1)nc1n2[C@@H](CNCc2ncccc2C)COC1	2.177% & -42.72%
Cc1noc(C)c1CN1CC2(CCN(C(=O)c3ccc[nH]3)C2)CC1=O (centres unmarked)	2.2% & 17.88%
c1cncc(CN(Cc2ccsc2)Cc2ccc(C3CCCCO3)o2)c1 (centres unmarked)	-49.36%
Cc1noc(C2CCC3(CCN(C(=O)c4cnn(C)c4)CC3)O2)n1 (centres unmarked)	4.037%
CC(=O)N(Cc1ncc(C)o1)C1CCN(Cc2csc(C)n2)C1 (centres unmarked)	-7.721%
COc1cccc(NC(C(N)=O)c2ccc(Br)cc2)c1 (centres unmarked)	3.175% & 12.71%
Cc1ccc(C)c(CNC(=O)NC(C)(C(=O)O)c2ccco2)c1 (centres unmarked)	16.19%
COc1cccc(CNCc2cccnc2)c1	-13.46%
NCC1Cc2cc(F)cc(-c3cnccn3)c2O1 (centres unmarked)	39.83%
CSCc1noc(CNC(=O)C2CCN(C(=O)C3CCC3)CC2)n1	-8.953% & 1.923%
CC(CNCc1ccc(Cl)cc1)Oc1ccccn1.Cl (centres unmarked)	8.244%
CC(C)N1CCCC(C(=O)NCc2noc(Cc3ccccc3)n2)C1 (centres unmarked)	-1.921% & -27.1%
Cc1ccn(CC(=O)NCCCOc2ccccc2F)c(=O)c1	19.37%
COc1ccc(NC(=O)c2cnc(C3CCN(C)CC3)nc2C)cc1	-3.964%
O=C(N1CCCC1)N1CCCC2(CCN(c3ccsc3)C2=O)C1 (centres unmarked)	-5.163%
CCC(=O)N1CCCC1(C)c1nc(C)no1 (centres unmarked)	-48.52%
O=C(NCCCNc1cccnc1)c1ccc2nccn2c1	-3.017% & -2.677%
O=S(=O)(N1CCOCC1)N1CCOC(CCCc2ccccc2)C1 (centres unmarked)	9.4%
COc1ccc(C(=O)N2C[C@@H](NC(=O)N(C)C)[C@H](C(C)C)C2)c(OC)n1	-3.543%
CNC(=O)C1(c2cnccn2)CCCN1C(=O)c1ccccc1C (centres unmarked)	-8%
CN(CC1CC1)c1ccc2ccc(C(=O)NCCc3ccccc3)cn12	-17.79%
Cc1n[nH]c(C)c1CCN(C)C(=O)c1ccc(CCC(C)(C)O)cc1	-0.4889% & -13.31%
Cc1cc(N2CCC(CO)(CC3CCCCO3)CC2)nc2ccccc12 (centres unmarked)	-21.09% & 11.18%
CN(C)CCN1CC(C(=O)N2CCC(c3nccn3C)CC2)CC1=O (centres unmarked)	-0.2233%
CCN1CCN(S(=O)(=O)c2cc(C)c(C)cc2Br)CC1	34.77%
[H][C@@]12CN(C(=O)c3ccncc3)C[C@]1([H])OCCN2C(C)C	-10.56%
O=C(O)c1ccc(N2CCC(Oc3cccc(F)c3)CC2)nc1	-14.53%
CC1CN(CC(=O)NCCc2ccncc2)Cc2ccccc2O1 (centres unmarked)	-9.675% & -5.337%
O=C(O)C(F)(F)F.c1ccc(CN2CCc3c(CNc4nccs4)n[nH]c3C2)nc1	5.137%
Cc1csc(CCNc2ccc(C#N)cn2)n1	-24.23%
Cc1nnc(CN2CCCC2c2cccc(Br)c2)o1 (centres unmarked)	13.42% & 4.721%
CC(C)Oc1ccc(CN2CCN3CCN(C)CC3C2)cc1CO (centres unmarked)	-4.088% & -1.347%
CCc1nc(CN(C)C2CCN(CCn3cc(C#N)cn3)C2)no1 (centres unmarked)	-23.39%
O=C(O)C(F)(F)F.[H][C@]12C[C@H](C(=O)NC)N(C)[C@@]1([H])CN(S(=O)(=O)c1ccc(F)cc1)C2	-30.67% & -2.361%
[H][C@@]12C[C@H](C(=O)NCc3ccccc3)[C@@]([H])(CN(S(=O)(=O)CC(C)C)C1)O2	-4.079%
Cl.c1cc(OCc2ccc3c(c2)OCCO3)ccc1CNC1CC1	-45.06% & 1.146%
COc1ccc(C)cc1C(C(=O)O)N1CCN(Cc2ccccn2)CC1 (centres unmarked)	11.49%
Cl.O=C1CC2(CCCNC2)C(=O)N1Cc1ccc(Cl)cc1 (centres unmarked)	6.877%
COc1cc(CNC(=O)c2csc(Br)c2)ccn1	28.48%
O=C(O)C(F)(F)F.O=C(O)C(F)(F)F.[H][C@@]12COC[C@]1(CNC(=O)c1ccsc1)CN(Cc1cccnc1)C2	-7.849%
COC(CNC(=O)c1cn(C)nn1)c1ccccc1C (centres unmarked)	-8.097%
CC(CO)NC(=O)c1ccc2[nH]/c(=N\S(C)(=O)=O)sc2c1 (centres unmarked)	-18.29%
CN(C)C(=O)N1CCc2c(COCC3CC3)cncc2C1	-7.99%

The last 6 entries again:

For Cl.O=C1CC2(CCCNC2)C(=O)N1Cc1ccc(Cl)cc1 (centres unmarked) the result was 6.877%.
For COc1cc(CNC(=O)c2csc(Br)c2)ccn1 the result was 28.48%.
For O=C(O)C(F)(F)F.O=C(O)C(F)(F)F.[H][C@@]12COC[C@]1(CNC(=O)c1ccsc1)CN(Cc1cccnc1)C2 the result was -7.849%.
For COC(CNC(=O)c1cn(C)nn1)c1ccccc1C (centres unmarked) the result was -8.097%.
For CC(CO)NC(=O)c1ccc2[nH]/c(=N\S(C)(=O)=O)sc2c1 (centres unmarked) the result was -18.29%.
For CN(C)C(=O)N1CCc2c(COCC3CC3)cncc2C1 the result was -7.99%.

From ChEMBL document CHEMBL3988442, “University of Dundee, Small-Polar-MMV Screening Library” (2021).